Positions of bridges follow the written chain, without caps; N, C: chain ends.
Experiment: general procedure: Fmoc solid-phase peptide synthesis; TentaGel S RAM
Conditions: analytical HPLC and MS; for final HPLC purity: oxidative folding step; for crude purity (method not given): whole synthesis

Ac-ICIWQDWGAHRCT-NH2 (disulfide 2-12; SMILES CC[C@H](C)[C@H](NC(C)=O)C(=O)N[C@H]1CSSC[C@@H](C(=O)N[C@H](C(N)=O)[C@@H](C)O)NC(=O)[C@H](CCCNC(=N)N)NC(=O)[C@H](Cc2c[nH]cn2)NC(=O)[C@H](C)NC(=O)CNC(=O)[C@H](Cc2c[nH]c3ccccc23)NC(=O)[C@H](CC(=O)O)NC(=O)[C@H](CCC(N)=O)NC(=O)[C@H](Cc2c[nH]c3ccccc23)NC(=O)[C@H]([C@@H](C)CC)NC1=O)
final HPLC purity: 92% | crude purity (method not given): ˜30%

Ac-SEFC(1)I[1-Me-Trp]QDWGEHRC(1)[Sar]EGA-K([17-carboxy-heptadecanoyl][γGlu]G[Peg3][γGlu][Peg3])-NH2
final HPLC purity: 91% | crude purity (method not given): ˜41-48%

— patent US11965039B2 (priority 2018, dated 2024)
